According to paper PMC4557629:
Results are given in words; binding and its absence hold for the method and conditions named. For some assays here: In cells and extracts the contact can be indirect. Some entries that bind do so weakly or less than the wild type. For some assays here: Where a sequence is shown, tags or fusion partners need not be part of it.

By UniProt entry, the sequences of proteins in these tests, tags left out. Where a name states a change or a piece, a line headed by the entry shows the natural chain unless it says otherwise. Residues count along the entry.
UniProt Q13148: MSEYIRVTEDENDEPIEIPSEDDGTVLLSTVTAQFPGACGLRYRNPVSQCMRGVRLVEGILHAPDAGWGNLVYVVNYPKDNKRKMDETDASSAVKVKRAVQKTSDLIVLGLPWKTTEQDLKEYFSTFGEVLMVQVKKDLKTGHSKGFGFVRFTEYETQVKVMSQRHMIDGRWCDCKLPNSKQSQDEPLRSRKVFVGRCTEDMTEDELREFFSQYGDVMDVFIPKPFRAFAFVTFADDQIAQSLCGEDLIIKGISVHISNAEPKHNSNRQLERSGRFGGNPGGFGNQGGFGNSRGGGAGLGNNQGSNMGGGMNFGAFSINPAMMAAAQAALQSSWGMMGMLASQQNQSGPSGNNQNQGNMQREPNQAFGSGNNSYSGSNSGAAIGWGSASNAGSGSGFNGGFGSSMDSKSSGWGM
GST-TDP-43(1–251): residues 1-251 of Q13148

B1: NeuN of human brain cortex (protein, UniProt A6NFN3 1-312)
chain: MAQPYPPAQYPPPPQNGIPAEYAPPPPHPTQDYSGQTPVPTEHGMTLYTPAQTHPEQPGSEASTQPIAGTQTVPQTDEAAQTDSQPLHPSDPTEKQQPKRLHVSNIPFRFRDPDLRQMFGQFGKILDVEIIFNERGSKGFGFVTFETSSDADRAREKLNGTIVEGRKIEVNNATARVMTNKKTGNPYTNGWKLNPVVGAVYGPEFYAVTGFPYPTTGTAVAYRGAHLRGRGRAVYNTFRAAPPPPPIPTYGAVVYQDGFYGAEIYGGYAAYRYAQPAAAAAAYSDSYGRVYAAADPYHHTIGPAATYSIGTM
B2: His-PSF(444–707) (domain or fragment, UniProt P23246 444-707)
chain: PVIVEPLEQLDDEDGLPEKLAQKNPMYQKERETPPRFAQHGTFEYEYSQRWKSLDEMEKQQREQVEKNMKDAKDKLESEMEDAYHEHQANLLRQDLMRRQEELRRMEELHNQEMQKRKEMQLRQEEERRRREEEMMIRQREMEEQMRRQREESYSRMGYMDPRERDMRMGGGGAMNMGDPYGSGGQKFPPLGGGGGIGYEANPGVPPATMSGSMMGSDMRTERFGQGGAGPVGGQGPRGMGPGTPAGYGRGREEYEGPNKKPRF

Key:
[1] = molecular target: TDP-43 of human brain cortex (ALS patient and control) (human (endogenous in brain cortex)) (UniProt Q13148); test: co-IP; immunoprecipitation of TDP-43 from whole, cytosolic and nuclear fractions of ALS patient and control brain cortex; rabbit IgG control
[2] = molecular target: GST-TDP-43(1–251) (human) (UniProt Q13148); test: pull-down; in vitro GST pull-down: GST fusion proteins of TDP-43 fragments incubated with purified His-PSF proteins of different regions; both purified

Row | Binder | binding [1] | binding [2]
1 | B1 | binds | 
2 | B2 |  | no binding
